Assay results taken from publication PMC6960199.
No constants are given. Whether binding was seen depends on the method and setting. Binding seen in cells or lysates may run through a third protein. Some results given as binding are weak or reduced against the parent protein; the word gives no strength. Values belong to the molecule of their own block, whether it stands above or below them.

Chains of the proteins cited; added tags and fusions are not shown.
UniProt O88427: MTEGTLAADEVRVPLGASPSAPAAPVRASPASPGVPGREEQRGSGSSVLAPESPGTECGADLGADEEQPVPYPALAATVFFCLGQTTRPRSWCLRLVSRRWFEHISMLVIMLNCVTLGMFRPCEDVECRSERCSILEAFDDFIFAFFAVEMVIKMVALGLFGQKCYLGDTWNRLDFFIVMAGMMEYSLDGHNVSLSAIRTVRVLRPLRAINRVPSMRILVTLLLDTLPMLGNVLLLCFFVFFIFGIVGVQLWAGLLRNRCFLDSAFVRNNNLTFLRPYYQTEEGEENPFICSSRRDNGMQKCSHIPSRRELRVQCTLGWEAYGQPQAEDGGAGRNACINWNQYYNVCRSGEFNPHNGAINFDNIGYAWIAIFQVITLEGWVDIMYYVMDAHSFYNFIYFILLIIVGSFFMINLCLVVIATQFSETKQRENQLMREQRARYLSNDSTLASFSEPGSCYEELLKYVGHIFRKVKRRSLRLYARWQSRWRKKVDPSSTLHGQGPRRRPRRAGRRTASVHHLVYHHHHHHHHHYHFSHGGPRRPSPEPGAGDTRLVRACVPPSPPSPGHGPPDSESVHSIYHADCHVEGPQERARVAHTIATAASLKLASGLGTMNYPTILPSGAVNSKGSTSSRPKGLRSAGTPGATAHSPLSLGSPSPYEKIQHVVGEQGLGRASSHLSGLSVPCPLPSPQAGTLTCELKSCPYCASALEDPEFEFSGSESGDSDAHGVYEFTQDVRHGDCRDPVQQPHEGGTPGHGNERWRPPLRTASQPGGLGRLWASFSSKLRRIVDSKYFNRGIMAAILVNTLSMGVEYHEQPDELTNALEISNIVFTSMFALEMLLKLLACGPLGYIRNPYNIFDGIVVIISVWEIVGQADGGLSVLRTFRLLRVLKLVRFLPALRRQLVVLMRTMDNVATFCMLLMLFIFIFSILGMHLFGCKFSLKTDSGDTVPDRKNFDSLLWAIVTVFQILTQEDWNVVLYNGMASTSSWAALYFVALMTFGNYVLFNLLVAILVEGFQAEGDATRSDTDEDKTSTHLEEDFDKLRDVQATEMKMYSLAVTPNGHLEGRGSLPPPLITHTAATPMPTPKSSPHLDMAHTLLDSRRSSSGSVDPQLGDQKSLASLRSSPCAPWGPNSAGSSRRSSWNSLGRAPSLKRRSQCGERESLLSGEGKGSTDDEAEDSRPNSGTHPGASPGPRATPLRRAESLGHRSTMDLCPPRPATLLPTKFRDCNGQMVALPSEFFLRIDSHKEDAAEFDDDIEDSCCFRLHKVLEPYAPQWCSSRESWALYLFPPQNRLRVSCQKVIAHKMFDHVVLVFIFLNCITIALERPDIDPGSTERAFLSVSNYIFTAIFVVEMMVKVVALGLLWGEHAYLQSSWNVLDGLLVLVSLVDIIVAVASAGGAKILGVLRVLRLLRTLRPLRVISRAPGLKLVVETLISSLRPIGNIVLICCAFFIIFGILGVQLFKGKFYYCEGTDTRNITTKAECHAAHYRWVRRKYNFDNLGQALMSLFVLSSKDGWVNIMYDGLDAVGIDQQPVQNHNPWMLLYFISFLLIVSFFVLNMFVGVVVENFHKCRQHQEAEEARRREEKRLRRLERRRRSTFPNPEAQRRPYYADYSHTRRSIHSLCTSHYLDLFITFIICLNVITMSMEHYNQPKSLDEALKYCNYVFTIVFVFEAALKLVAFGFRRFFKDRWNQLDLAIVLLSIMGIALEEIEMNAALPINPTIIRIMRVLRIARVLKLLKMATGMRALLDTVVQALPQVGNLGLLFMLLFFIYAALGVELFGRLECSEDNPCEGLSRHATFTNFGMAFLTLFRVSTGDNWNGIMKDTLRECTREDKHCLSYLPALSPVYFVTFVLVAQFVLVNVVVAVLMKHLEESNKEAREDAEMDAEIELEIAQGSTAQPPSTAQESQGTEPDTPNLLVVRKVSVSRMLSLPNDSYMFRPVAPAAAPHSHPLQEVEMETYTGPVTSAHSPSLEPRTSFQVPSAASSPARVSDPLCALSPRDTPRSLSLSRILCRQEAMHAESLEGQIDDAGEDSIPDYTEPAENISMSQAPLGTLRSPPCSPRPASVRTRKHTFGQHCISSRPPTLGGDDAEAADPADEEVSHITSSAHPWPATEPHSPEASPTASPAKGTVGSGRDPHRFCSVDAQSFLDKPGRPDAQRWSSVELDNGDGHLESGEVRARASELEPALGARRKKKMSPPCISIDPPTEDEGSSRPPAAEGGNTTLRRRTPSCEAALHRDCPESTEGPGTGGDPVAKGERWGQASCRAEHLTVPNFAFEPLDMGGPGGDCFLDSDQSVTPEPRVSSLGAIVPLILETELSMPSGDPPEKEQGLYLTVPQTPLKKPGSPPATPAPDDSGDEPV

How the values were obtained:
[1] = target: T1, Kelch-like 1 (KLHL1) (mouse (endogenous in DRG)) (UniProt Q9JI74); assay: co-IP; crude membrane preparations of mouse DRG; primary antibodies against CaV3.2 (1:40) or KLHL1 (1:40), or IgG as negative control, 1-3 h at 4°C, then protein A/G agarose beads overnight at 4°C; western blot
T1 sequence: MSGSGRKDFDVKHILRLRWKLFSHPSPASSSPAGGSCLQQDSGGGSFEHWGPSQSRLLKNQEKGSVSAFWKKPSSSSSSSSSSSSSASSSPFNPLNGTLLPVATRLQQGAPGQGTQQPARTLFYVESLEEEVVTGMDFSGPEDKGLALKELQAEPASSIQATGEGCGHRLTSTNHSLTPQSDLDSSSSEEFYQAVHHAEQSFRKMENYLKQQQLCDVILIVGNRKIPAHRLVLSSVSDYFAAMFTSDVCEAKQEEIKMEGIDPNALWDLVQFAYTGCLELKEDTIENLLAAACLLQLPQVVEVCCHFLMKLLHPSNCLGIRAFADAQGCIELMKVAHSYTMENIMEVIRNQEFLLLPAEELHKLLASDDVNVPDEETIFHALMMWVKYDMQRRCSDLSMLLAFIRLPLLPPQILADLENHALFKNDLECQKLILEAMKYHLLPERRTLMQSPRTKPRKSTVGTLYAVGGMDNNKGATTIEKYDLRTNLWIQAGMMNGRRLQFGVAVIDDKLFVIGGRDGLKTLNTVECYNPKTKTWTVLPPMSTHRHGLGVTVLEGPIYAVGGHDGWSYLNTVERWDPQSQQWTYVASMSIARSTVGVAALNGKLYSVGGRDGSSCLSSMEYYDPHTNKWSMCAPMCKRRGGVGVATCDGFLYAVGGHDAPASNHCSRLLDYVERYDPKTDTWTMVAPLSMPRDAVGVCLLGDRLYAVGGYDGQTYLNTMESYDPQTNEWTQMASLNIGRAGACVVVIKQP

[2] = target: CaV3.2 T-type calcium channel (mouse (endogenous in DRG)) (UniProt O88427); assay: as above

binding [1]: binds
Molecule: CaV3.2 T-type calcium channel (from UniProt O88427 1-2365)

binding [2]: binds
B1: Kelch-like 1 (KLHL1) (protein, UniProt Q9JI74 1-751)
chain: T1 sequence
